Like-named read-outs stand apart in the source and are kept apart here. These are yes or no findings as the source states them, for the method shown. In cells and extracts the contact can be indirect. These calls come from enrichment with a bait or labelling near it, and not all partners need be listed. For some assays here: A no says only that the protein was not detected with the bait.
T1: DPF3a, bait protein of the tandem affinity purification (UniProt Q92784)
T1 sequence: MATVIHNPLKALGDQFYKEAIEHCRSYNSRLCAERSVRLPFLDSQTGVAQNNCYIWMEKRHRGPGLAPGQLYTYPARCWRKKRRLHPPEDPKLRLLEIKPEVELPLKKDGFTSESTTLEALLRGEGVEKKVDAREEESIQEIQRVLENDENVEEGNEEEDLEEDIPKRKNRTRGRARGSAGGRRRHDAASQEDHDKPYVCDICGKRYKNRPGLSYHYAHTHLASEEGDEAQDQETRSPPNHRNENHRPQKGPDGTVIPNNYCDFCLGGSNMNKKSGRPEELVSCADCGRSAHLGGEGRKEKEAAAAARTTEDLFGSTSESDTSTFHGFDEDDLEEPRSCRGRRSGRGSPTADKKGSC

The chains behind the UniProt entries cited, without tags or fusion partners.
UniProt Q9NY65: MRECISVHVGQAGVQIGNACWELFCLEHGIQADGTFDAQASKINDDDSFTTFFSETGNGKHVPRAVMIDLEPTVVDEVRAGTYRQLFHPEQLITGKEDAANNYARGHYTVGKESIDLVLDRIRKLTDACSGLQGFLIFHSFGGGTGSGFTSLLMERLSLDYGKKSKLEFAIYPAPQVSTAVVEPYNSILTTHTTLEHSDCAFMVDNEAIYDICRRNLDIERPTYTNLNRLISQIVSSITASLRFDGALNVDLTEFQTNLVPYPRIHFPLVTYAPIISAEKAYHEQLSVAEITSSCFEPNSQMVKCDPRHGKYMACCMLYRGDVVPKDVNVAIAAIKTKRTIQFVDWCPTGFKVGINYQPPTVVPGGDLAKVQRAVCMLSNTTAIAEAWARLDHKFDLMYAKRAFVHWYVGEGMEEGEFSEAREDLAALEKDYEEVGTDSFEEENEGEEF
UniProt Q6PEY2: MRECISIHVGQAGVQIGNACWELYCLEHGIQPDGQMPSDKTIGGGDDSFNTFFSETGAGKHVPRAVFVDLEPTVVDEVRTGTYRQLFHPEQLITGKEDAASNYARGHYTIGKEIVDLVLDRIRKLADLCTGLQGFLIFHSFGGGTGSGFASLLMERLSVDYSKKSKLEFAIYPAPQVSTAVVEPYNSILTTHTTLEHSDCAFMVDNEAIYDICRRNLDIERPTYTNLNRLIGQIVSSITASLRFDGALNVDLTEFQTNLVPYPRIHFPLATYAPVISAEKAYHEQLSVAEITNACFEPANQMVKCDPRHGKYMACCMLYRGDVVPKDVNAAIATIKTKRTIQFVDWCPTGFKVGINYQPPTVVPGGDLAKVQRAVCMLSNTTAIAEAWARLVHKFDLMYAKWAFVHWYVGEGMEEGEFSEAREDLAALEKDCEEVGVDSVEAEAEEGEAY
UniProt Q5T4S7: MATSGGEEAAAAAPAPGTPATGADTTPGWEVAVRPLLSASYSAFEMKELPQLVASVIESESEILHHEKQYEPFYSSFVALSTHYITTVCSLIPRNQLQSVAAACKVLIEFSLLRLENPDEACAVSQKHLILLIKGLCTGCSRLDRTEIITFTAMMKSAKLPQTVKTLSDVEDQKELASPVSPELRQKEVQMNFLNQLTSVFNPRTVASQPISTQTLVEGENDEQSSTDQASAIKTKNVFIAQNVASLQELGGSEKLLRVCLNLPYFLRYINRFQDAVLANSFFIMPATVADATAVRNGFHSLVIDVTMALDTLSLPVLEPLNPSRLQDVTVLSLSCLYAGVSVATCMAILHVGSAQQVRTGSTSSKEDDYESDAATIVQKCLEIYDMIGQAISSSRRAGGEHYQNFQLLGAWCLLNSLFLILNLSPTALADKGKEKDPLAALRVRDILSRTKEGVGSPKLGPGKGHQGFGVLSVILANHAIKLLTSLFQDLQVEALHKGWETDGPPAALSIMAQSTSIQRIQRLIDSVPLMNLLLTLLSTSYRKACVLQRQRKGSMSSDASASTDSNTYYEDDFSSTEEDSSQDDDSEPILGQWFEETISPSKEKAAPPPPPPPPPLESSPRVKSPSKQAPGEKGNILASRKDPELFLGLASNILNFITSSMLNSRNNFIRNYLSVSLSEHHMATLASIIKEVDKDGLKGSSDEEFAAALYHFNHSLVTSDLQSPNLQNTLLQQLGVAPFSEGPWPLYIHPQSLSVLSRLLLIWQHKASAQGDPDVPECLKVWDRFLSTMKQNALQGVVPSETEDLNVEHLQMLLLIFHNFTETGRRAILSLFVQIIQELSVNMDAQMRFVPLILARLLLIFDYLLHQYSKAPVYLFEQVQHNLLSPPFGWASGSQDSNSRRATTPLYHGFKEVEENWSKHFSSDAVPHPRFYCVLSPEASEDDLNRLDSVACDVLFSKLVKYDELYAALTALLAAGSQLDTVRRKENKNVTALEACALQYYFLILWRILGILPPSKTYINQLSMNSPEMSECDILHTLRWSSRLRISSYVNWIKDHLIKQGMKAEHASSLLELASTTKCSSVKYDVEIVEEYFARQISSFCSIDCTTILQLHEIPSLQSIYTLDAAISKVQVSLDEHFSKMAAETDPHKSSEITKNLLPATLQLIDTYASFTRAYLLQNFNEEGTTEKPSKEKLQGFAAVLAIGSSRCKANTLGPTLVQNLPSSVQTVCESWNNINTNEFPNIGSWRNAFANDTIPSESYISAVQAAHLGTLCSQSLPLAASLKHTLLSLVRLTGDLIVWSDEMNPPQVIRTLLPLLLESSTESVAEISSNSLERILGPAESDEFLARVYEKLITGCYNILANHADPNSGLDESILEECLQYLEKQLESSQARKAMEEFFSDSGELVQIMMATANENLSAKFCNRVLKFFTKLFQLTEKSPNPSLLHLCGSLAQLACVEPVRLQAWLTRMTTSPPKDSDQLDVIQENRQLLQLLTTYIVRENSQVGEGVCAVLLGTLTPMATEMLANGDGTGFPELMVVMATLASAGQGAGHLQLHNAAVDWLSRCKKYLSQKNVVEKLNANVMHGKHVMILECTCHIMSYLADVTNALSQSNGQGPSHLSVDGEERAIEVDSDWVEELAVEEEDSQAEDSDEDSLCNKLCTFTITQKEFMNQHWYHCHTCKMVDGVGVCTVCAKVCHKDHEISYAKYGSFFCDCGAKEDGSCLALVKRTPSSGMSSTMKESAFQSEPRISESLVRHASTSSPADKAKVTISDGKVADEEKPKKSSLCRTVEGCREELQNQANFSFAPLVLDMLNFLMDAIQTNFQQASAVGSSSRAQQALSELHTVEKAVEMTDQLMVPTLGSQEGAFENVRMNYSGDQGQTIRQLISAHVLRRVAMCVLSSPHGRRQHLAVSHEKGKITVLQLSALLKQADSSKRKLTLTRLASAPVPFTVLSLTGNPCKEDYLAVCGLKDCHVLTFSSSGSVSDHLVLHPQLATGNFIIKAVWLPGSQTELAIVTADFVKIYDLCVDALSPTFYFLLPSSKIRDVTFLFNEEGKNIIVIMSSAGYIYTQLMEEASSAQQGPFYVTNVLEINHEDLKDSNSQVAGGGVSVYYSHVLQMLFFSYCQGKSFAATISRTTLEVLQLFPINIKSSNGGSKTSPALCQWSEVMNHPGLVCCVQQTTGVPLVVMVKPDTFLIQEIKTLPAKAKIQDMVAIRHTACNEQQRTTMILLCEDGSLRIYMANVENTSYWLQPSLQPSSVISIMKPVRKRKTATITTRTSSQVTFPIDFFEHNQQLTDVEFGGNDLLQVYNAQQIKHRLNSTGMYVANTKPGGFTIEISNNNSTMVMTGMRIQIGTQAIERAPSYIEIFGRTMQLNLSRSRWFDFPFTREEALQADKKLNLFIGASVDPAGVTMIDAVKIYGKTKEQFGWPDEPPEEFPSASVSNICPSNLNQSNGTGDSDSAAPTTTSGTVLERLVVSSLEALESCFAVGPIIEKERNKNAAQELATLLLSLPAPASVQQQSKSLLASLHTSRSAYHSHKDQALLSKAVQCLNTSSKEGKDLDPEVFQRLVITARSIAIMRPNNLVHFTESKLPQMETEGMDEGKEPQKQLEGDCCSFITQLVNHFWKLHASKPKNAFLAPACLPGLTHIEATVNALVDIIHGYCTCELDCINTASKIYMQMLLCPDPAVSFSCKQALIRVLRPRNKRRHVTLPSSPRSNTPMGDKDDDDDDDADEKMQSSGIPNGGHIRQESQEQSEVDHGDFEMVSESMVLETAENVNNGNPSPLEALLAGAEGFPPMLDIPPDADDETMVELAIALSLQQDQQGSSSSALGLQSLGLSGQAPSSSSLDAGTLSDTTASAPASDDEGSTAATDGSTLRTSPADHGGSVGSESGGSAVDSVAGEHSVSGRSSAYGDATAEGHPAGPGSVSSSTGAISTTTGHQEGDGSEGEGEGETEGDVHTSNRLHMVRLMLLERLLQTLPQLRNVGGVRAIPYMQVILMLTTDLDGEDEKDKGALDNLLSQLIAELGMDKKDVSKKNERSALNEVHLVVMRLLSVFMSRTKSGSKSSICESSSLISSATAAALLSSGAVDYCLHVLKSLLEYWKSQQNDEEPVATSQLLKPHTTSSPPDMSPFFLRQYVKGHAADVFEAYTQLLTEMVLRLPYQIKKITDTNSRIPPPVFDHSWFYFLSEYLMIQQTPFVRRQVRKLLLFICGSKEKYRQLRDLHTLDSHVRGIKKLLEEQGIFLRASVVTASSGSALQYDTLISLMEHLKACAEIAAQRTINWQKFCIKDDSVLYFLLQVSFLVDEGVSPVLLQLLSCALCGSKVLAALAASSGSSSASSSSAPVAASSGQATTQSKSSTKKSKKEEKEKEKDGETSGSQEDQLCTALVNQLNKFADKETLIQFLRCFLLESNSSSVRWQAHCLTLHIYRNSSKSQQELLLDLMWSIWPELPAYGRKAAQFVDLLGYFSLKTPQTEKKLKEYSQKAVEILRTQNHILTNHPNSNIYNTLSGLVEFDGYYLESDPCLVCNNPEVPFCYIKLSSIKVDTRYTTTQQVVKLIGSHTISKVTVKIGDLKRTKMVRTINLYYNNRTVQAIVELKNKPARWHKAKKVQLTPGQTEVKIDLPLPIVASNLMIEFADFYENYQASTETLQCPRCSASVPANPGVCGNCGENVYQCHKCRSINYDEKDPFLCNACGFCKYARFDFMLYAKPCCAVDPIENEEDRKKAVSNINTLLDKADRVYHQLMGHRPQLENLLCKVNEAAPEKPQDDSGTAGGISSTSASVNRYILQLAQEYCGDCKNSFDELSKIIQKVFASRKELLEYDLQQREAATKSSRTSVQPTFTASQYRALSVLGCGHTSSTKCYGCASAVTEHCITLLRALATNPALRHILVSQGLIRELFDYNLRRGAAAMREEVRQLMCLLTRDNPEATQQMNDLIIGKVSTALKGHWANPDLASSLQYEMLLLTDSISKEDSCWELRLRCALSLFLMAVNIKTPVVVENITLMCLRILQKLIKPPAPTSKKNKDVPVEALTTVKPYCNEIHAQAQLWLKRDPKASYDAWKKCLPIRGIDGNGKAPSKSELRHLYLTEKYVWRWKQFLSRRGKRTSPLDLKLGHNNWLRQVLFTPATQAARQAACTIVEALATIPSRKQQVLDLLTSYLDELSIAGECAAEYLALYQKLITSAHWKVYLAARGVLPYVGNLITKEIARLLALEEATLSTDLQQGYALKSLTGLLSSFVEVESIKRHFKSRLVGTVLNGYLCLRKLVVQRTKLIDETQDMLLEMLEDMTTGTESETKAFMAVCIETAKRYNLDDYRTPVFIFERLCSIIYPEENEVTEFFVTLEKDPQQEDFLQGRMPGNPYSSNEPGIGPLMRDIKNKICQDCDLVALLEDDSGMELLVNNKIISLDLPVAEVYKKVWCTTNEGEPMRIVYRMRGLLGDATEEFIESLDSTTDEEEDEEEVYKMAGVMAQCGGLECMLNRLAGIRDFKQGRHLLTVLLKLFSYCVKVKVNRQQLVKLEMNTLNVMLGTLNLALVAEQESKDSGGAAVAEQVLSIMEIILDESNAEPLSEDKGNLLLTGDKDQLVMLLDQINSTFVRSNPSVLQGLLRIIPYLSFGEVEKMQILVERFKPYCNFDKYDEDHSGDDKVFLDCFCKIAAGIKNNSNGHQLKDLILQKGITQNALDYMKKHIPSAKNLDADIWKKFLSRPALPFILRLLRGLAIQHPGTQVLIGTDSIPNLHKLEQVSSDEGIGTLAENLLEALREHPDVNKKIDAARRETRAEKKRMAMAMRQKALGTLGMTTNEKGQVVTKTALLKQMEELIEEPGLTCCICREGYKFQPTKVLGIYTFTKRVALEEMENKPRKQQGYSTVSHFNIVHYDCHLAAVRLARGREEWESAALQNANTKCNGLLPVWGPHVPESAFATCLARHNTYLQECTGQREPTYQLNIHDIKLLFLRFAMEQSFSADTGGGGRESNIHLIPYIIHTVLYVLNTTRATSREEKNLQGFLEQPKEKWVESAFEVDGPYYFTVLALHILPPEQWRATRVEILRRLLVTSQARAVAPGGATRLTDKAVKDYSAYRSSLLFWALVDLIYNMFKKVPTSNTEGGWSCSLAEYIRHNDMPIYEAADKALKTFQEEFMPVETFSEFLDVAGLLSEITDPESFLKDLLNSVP
UniProt P68400: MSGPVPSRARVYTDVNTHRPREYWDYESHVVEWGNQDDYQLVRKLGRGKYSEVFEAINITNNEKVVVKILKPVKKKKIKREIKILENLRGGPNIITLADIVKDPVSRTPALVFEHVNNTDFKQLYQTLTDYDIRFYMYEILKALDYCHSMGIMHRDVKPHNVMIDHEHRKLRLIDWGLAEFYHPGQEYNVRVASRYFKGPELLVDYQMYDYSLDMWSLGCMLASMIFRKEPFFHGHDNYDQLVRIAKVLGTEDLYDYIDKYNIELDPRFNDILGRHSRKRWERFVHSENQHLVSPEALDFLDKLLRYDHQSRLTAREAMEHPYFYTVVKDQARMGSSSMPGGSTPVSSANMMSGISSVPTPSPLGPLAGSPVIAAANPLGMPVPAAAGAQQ


What was measured:
Test in all cases: affinity purification with mass spectrometry; tandem affinity purification of DPF3a or DPF3b from HEK293 cells (cytoplasm), mass spectrometry; hits with Mascot score >40 and at least two matching spectra
[1] = target: DPF3b, bait protein of the tandem affinity purification (UniProt Q92784)
[2] = target: T1, DPF3a, bait protein of the tandem affinity purification
[3] = target: T1, DPF3a, bait protein of the tandem affinity purification; remark: listed apart in the source
[4] = target: DPF3b, bait protein of the tandem affinity purification (UniProt Q92784); remark: listed apart in the source

Molecule | binding [1] | binding [2] | further results
Tubulin alpha-8 chain (from UniProt Q9NY65 1-449) | binds | – | –
Heat shock 70 kDa protein 1L (from UniProt P34931 1-641) | – | binds | –
Apoptosis-inducing factor 1, mitochondrial precursor (from UniProt O95831) | – | binds | –
Casein kinase II subunit beta (from UniProt P67870 1-215) | no binding | binds | –
Tubulin alpha-3E chain (from UniProt Q6PEY2 1-450) | binds | – | –
Hepatoma-derived growth factor-related protein 3 (from UniProt Q9Y3E1 1-203) | – | binds | –
Elongation factor 1-alpha 2 (from UniProt Q05639 1-463) | binds | – | –
Zinc finger UBR1-type protein 1, ubiquitin protein ligase E3 component n-recognin 4 (from UniProt Q5T4S7 1-5183) | – | binds | –
E3 ubiquitin-protein ligase EDD1 (from UniProt O95071 1-2799) | – | binds | –
activating signal cointegrator 1 complex subunit 3-like 1 (from UniProt O75643 1-2136) | – | binds | –
Import inner membrane translocase subunit TIM50, mitochondrial precursor (from UniProt Q3ZCQ8 45-353) | binds | – | –
Casein kinase II subunit alpha' (from UniProt P19784 1-350) | no binding | binds | –
Ig kappa chain C region (from UniProt P01834 1-107) | – | binds | –
Casein kinase II subunit alpha (from UniProt P68400 1-391) | no binding | binds | –
Activator of 90 kDa heat shock protein ATPase homolog 1 (from UniProt O95433 1-338) | binds | – | –
Synaptic glycoprotein SC2 (protein, UniProt Q9NZ01 1-308) MKHYEVEILDAKTREKLCFLDKVEPHATIAEIKNLFTKTHPQWYPARQSLRLDPKGKSLKDEDVLQKLPVGTTATLYFRDLGAQISWVTVFLTEYAGPLFIYLLFYFRVPFIYGHKYDFTSSRHTVVHLACICHSFHYIKRLLETLFVHRFSHGTMPLRNIFKNCTYYWGFAAWMAYYINHPLYTPPTYGAQQVKLALAIFVICQLGNFSIHMALRDLRPAGSKTRKIPYPTKNPFTWLFLLVSCPNYTYEVGSWIGFAIMTQCLPVALFSLVGFTQMTIWAKGKHRSYLKEFRDYPPLRMPIIPFLL | – | – | binding [3]: binds
Exportin-T (protein, UniProt O43592 1-962) MDEQALLGLNPNADSDFRQRALAYFEQLKISPDAWQVCAEALAQRTYSDDHVKFFCFQVLEHQVKYKYSELTTVQQQLIRETLISWLQAQMLNPQPEKTFIRNKAAQVFALLFVTEYLTKWPKFFFDILSVVDLNPRGVDLYLRILMAIDSELVDRDVVHTSEEARRNTLIKDTMREQCIPNLVESWYQILQNYQFTNSEVTCQCLEVVGAYVSWIDLSLIANDRFINMLLGHMSIEVLREEACDCLFEVVNKGMDPVDKMKLVESLCQVLQSAGFFSIDQEEDVDFLARFSKLVNGMGQSLIVSWSKLIKNGDIKNAQEALQAIETKVALMLQLLIHEDDDISSNIIGFCYDYLHILKQLTVLSDQQKANVEAIMLAVMKKLTYDEEYNFENEGEDEAMFVEYRKQLKLLLDRLAQVSPELLLASVRRVFSSTLQNWQTTRFMEVEVAIRLLYMLAEALPVSHGAHFSGDVSKASALQDMMRTLVTSGVSSYQHTSVTLEFFETVVRYEKFFTVEPQHIPCVLMAFLDHRGLRHSSAKVRSRTAYLFSRFVKSLNKQMNPFIEDILNRIQDLLELSPPENGHQSLLSSDDQLFIYETAGVLIVNSEYPAERKQALMRNLLTPLMEKFKILLEKLMLAQDEERQASLADCLNHAVGFASRTSKAFSNKQTVKQCGCSEVYLDCLQTFLPALSCPLQKDILRSGVRTFLHRMIICLEEEVLPFIPSASEHMLKDCEAKDLQEFIPLINQITAKFKIQVSPFLQQMFMPLLHAIFEVLLRPAEENDQSAALEKQMLRRSYFAFLQTVTGSGMSEVIANQGAENVERVLVTVIQGAVEYPDPIAQKTCFIILSKLVELWGGKDGPVGFADFVYKHIVPACFLAPLKQTFDLADAQTVLALSECAVTLKTIHLKRGPECVQYLQQEYLPSLQVAPEIIQEFCQALQQPDAKVFKNYLKVFFQRAKP | – | – | binding [4]: binds

Source: publication PMC4824069
